Data taken from paper PMC11094951.

Sequences of proteins named here, by UniProt entry; tags and fusion partners are left off.
UniProt P40227: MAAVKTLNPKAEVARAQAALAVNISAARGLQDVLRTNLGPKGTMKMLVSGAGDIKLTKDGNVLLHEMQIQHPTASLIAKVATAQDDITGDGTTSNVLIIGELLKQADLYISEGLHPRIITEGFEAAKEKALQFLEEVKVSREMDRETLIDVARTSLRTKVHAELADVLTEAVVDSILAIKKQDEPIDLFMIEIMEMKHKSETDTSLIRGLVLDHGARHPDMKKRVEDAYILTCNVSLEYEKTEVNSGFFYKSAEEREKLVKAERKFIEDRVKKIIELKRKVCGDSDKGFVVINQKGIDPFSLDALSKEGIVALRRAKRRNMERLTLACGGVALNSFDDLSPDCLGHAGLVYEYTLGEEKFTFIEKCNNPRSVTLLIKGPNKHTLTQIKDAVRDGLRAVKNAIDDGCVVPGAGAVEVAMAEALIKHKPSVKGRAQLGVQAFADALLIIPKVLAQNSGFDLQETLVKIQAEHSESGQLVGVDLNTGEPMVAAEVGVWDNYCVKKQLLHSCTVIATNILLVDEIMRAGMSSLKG
UniProt P42224: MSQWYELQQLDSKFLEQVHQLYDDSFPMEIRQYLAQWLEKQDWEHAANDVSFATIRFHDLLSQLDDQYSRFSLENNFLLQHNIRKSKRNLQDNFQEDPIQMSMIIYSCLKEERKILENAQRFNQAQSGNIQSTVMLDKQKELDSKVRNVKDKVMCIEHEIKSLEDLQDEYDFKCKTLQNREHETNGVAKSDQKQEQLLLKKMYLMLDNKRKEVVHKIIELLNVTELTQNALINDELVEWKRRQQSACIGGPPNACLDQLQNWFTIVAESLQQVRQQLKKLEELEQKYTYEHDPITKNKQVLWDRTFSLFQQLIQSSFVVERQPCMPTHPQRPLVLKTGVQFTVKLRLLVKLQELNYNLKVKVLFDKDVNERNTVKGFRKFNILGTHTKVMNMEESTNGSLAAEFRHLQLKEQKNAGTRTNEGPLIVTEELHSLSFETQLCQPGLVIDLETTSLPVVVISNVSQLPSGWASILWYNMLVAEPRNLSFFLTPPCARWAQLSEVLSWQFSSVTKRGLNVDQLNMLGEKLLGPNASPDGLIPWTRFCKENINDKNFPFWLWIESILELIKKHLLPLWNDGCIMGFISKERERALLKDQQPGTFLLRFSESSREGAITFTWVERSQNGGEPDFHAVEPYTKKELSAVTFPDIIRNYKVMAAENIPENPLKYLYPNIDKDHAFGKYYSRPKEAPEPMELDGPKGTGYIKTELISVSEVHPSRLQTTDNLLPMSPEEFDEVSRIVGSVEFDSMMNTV

Molecular target: Chaperonin Containing TCP1 Subunit 6 A (CCT6A) (human (endogenous in A549/PC9)) (UniProt P40227)
Experiment: affinity purification with mass spectrometry; proteins immunoprecipitated by anti-CCT6A or IgG, Coomassie-stained bands excised, digested, nanoLC-MS/MS (Orbitrap Fusion); cell line not stated

Substance: STAT1 (Signal Transducer and Activator of Transcription 1) (from UniProt P42224 1-750)
- binding: binds

No constants are given. Whether binding was seen depends on the method and setting. In cells and extracts the contact can be indirect. Here binding means that the protein was enriched with, or labelled near, the bait; the list need not be complete.
